Experimental data reported in paper PMC7863242.
No constants are given. Whether binding was seen depends on the method and setting. In cells and extracts the contact can be indirect. Some results given as binding are weak or reduced against the parent protein; the word gives no strength.

Protein sequences, listed by entry. Tags and fused reporters are not part of them.
UniProt O96019: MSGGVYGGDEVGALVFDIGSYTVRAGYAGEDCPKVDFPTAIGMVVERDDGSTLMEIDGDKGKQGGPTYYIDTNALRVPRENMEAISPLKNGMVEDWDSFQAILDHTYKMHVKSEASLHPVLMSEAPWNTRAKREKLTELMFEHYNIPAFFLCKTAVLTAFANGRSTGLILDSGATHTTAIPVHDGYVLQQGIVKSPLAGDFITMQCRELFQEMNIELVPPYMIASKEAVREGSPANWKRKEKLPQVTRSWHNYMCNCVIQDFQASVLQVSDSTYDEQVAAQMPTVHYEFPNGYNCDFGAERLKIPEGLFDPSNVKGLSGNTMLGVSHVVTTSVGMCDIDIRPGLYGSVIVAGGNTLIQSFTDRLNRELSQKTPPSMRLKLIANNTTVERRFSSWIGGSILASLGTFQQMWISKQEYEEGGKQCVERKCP
UniProt Q92993: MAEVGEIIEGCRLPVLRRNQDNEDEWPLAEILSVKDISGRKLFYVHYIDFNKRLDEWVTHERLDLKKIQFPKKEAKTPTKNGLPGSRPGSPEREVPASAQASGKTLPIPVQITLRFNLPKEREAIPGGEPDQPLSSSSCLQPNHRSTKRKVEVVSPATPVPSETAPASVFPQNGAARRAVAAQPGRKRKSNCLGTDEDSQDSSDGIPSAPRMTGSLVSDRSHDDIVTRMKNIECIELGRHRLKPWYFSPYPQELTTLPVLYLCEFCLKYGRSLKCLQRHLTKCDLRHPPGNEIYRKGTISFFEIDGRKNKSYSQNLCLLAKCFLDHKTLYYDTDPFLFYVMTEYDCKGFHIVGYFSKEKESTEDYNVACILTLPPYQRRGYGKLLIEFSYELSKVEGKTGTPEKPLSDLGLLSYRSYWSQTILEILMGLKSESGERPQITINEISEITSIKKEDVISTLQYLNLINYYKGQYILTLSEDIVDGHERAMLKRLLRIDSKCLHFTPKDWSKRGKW

Target: ACTL6A overexpressed in SUM159PT-ACTL6A cells (human) (UniProt O96019)
Assay: co-IP; IP assay in SUM159PT-ACTL6A cells (Fig. 2g)

Substance: KAT5 (from UniProt Q92993 1-513)
- binding: binds
